Patent US20090156494A1, “COMPOSITIONS AND METHODS COMPRISING GASTRIN COMPOUNDS” (priority 2003, published 2009)
At least one structure is not confirmed: it was looked up by name or label, or the drawing left a doubt. Some entries share one result that the patent states for a list of compounds.

Tests used:
Format in all cases: in vivo
[1] = tested on: NOD mice with recent onset diabetes; assay: Gastrin or EGF treatment of NOD mice with recent onset diabetes: fasting blood glucose and pancreatic insulin content
[2] = tested on: NOD mice with recent onset diabetes; assay: Prolonged effect of gastrin on fasting blood glucose in NOD mice with recent onset diabetes; settings: 18 day treatment with 3 μg/kg/day
[3] = tested on: NOD mice with chronic insulin-dependent diabetes; assay: Dose-dependent effects of gastrin on fasting blood glucose and survival in NOD mice with chronic insulin-dependent diabetes; settings: for Fasting blood glucose levels at day 28: 14 days after cessation of insulin; for Fasting blood glucose (FBG) levels, day 0 to day 14: animals maintained on insulin therapy

CSCC[C@@H](NC(=O)[C@@H](Cc1c[nH]c2ccccc12)NC(=O)CNC(=O)[C@@H](Cc1ccc(O)cc1)NC(=O)[C@@H](C)NC(=O)[C@@H](CCC(=O)O)NC(=O)[C@@H](CCC(=O)O)NC(=O)[C@@H](CCC(=O)O)NC(=O)[C@H](CCC(=O)O)NC(=O)[C@H](CCC(=O)O)NC(=O)[C@H](CC(C)C)NC(=O)[C@H](Cc1c[nH]c2ccccc12)NC(=O)[C@@H]1CCCN1C(=O)CNC(=O)[C@@H](N)CCC(=O)O)C(=O)N[C@H](CC(=O)O)C(=O)N[C@H](Cc1ccccc1)C(N)=O [G1]
Time after therapy is stopped for which progression of diabetic conditions is prevented and pancreatic insulin content improved ([1]; 14 days of treatment after recent onset of diabetes): at least 3 weeks
Pancreatic insulin levels ([1]; day 35, in comparison to pretreatment values, i.p. once daily for 14 days (E1 1 μg/kg/day, G1 3 μg/kg/day)): significantly elevated levels
Fasting blood glucose (FBG) levels ([1]; day 35 vs day 0 (diabetes onset), i.p. once daily for 14 days (E1 1 μg/kg/day, G1 3 μg/kg/day), no insulin replacement): remained close to values recorded at diabetes onset
Time after cessation of treatment for which FBG is reduced [2]: at least 5 weeks
Fasting blood glucose (FBG) levels relative to control animals ([2]; monitored up to 8 weeks from initiation of therapy): remained decreased relative to the control animals
Fasting blood glucose levels at day 28 ([3]; 1 μg/kg/day i.p. twice daily for 28 days): remained elevated
Fasting blood glucose (FBG) levels, day 0 to day 14 ([3]; 10 μg/kg/day i.p. twice daily): exhibited a decrease in FBG
Fasting blood glucose (FBG) levels, day 0 to day 14 ([3]; 1 and 5 μg/kg/day i.p. twice daily): remained close to levels recorded at day 0
Fasting blood glucose levels at day 28 ([3]; 5 and 10 μg/kg/day i.p. twice daily for 28 days): corresponding decrease of fasting blood glucose levels with increasing dose
Fasting blood glucose levels (FIG. 4 legend) ([3]; chronically diabetic insulin-dependent NOD mice, dose not stated in legend): decreases fasting blood glucose levels
